From article PMC5322733
Results are given in words; binding and its absence hold for the method and conditions named. In cells and extracts the contact can be indirect. Some results given as binding are weak or reduced against the parent protein; the word gives no strength. Tags and fused reporters may be left off the sequences shown.

T1: BB-GFP (Arabidopsis thaliana) (UniProt Q8L649)
T1 sequence: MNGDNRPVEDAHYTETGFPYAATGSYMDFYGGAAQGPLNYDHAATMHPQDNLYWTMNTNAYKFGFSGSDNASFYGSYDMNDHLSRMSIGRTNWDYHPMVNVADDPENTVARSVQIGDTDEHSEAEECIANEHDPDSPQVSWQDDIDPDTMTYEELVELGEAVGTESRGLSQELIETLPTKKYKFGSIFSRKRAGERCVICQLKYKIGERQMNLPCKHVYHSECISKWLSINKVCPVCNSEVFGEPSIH

T2: GST-tagged DA1 (Arabidopsis thaliana) (UniProt P0C7Q8)
T2 sequence: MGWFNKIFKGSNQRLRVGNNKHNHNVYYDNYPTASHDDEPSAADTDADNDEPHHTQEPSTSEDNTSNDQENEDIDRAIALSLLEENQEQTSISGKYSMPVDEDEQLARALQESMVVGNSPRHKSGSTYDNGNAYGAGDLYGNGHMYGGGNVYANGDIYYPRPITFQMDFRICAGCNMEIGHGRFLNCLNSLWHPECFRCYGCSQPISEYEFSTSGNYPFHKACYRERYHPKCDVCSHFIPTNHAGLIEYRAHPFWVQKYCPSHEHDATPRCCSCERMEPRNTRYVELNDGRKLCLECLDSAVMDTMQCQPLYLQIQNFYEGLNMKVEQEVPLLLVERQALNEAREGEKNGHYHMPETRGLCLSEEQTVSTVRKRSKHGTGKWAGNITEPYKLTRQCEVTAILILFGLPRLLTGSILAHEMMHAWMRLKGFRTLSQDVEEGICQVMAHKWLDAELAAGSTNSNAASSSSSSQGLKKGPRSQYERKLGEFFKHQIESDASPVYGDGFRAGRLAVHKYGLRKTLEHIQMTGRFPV


Experiments:
[1] = biological target: T1, BB-GFP (Arabidopsis thaliana); assay: co-IP; BB-GFP or GFP coexpressed with Myc-DA1 in N. benthamiana leaves (Agrobacterium-mediated transient expression); purified using GFP trap and immunoblotted
[2] = biological target: T2, GST-tagged DA1 (Arabidopsis thaliana); assay: pull-down; in vitro; GST-DA1 with HIS-BB or HIS-BBR; GST-GUS as negative control

| binding [1] | binding [2] | Binder |
| --- | --- | --- |
| binds |  | Myc-tagged DA1 (enzyme, UniProt P0C7Q8 1-532) MGWFNKIFKGSNQRLRVGNNKHNHNVYYDNYPTASHDDEPSAADTDADNDEPHHTQEPSTSEDNTSNDQENEDIDRAIALSLLEENQEQTSISGKYSMPVDEDEQLARALQESMVVGNSPRHKSGSTYDNGNAYGAGDLYGNGHMYGGGNVYANGDIYYPRPITFQMDFRICAGCNMEIGHGRFLNCLNSLWHPECFRCYGCSQPISEYEFSTSGNYPFHKACYRERYHPKCDVCSHFIPTNHAGLIEYRAHPFWVQKYCPSHEHDATPRCCSCERMEPRNTRYVELNDGRKLCLECLDSAVMDTMQCQPLYLQIQNFYEGLNMKVEQEVPLLLVERQALNEAREGEKNGHYHMPETRGLCLSEEQTVSTVRKRSKHGTGKWAGNITEPYKLTRQCEVTAILILFGLPRLLTGSILAHEMMHAWMRLKGFRTLSQDVEEGICQVMAHKWLDAELAAGSTNSNAASSSSSSQGLKKGPRSQYERKLGEFFKHQIESDASPVYGDGFRAGRLAVHKYGLRKTLEHIQMTGRFPV |
|  | binds | HIS-tagged Big Brother (BB) (enzyme, UniProt Q8L649 1-248) MNGDNRPVEDAHYTETGFPYAATGSYMDFYGGAAQGPLNYDHAATMHPQDNLYWTMNTNAYKFGFSGSDNASFYGSYDMNDHLSRMSIGRTNWDYHPMVNVADDPENTVARSVQIGDTDEHSEAEECIANEHDPDSPQVSWQDDIDPDTMTYEELVELGEAVGTESRGLSQELIETLPTKKYKFGSIFSRKRAGERCVICQLKYKIGERQMNLPCKHVYHSECISKWLSINKVCPVCNSEVFGEPSIH |
|  | no binding | HIS-tagged BBR (BB-related) (enzyme, UniProt Q9LT17 1-340) MPMENDNGPHVGNVVVTAEQATKINETDGRLPENRQTGVVSDTGSGSERGEQGVGESAVAVAVPVEESGSISVGELPAPRSSSARVPFTNLSQIDADLALARTLQEQERAYMMLTMNSEISDYGSWETGSYVYDEDEFDDPENEDEDDDEDEYETDDDPQEDGLDVNVHANEDDQEDDGNSDIEEVAYTDDEAYARALQEAEERDMAARLSALSGLANRVVEDLEDESHTSQDAWDEMDPDELSYEELLALGDIVGTESRGLSADTIASLPSKRYKEGDNQNGTNESCVICRLDYEDDEDLILLPCKHSYHSECINNWLKINKVCPVCSAEVSTSTSGQS |
